{"source": "patent US9073916B2", "about": "“Prodrug forms of kinase inhibitors and their use in therapy” (AUCKLAND UNISERVICES LIMITED, priority 2009, dated 2015)", "assay": "Steady state radiolytic reduction by the CO2.− radical with HPLC-MS", "assay_type": "physicochemical", "details": "HPLC-MS at 0.95 reducing equivalents", "note": "Some of these results come from one statement about several compounds together. At least one compound was matched to its structure with a doubt left."}
{"smiles": "Cn1cnc([N+](=O)[O-])c1C[N+](C)(C)C/C=C/C(=O)Nc1ccc2ncnc(Nc3cccc(Br)c3)c2c1.[Br-]", "note": "[Compound 20, (2E)-4-{[4-(3-bromoanilino)-6-quinazolinyl]amino}-N,N-dimethyl-N-[(1-methyl-4-nitro-1H-imidazol-5-yl)methyl]-4-oxo-2-buten-1-ammonium bromide]", "values": [{"measurement": "% Loss of prodrug", "value": "> 50", "unit": "%"}]}
{"smiles": "Cn1c(C[N+](C)(C)C/C=C/C(=O)Nc2ccc3ncnc(Nc4cccc(Br)c4)c3c2)ccc1[N+](=O)[O-].[Br-]", "note": "[Compound 19, (2E)-4-{[4-(3-bromoanilino)-6-quinazolinyl]amino}-N,N-dimethyl-N-[(1-methyl-5-nitro-1H-pyrrol-2-yl)methyl]-4-oxo-2-buten-1-ammonium bromide]", "values": [{"measurement": "% Loss of prodrug", "value": "> 50", "unit": "%"}]}
